# Reference: PubChem BioAssay AID330 (DTP/NCI, 2004)
# The list does not hold the whole screen: it gathers tests that were run many times, whatever their T/C, doses with no T/C, and many T/C values between a quarter and a half above the control. Further doses and runs are listed elsewhere. T/C gives the treated animals as a percentage of the vehicle group. Some entries give survivors of the animals treated and no T/C: the source holds a T/C of zero for them, seemingly a mark for toxic or unscored doses. Some doses without a T/C left all or most animals alive at the check, yet need not have been tolerated: the source hardly ever lists a survival T/C far under the control, and the zero likely stands for such cases as well. Counts of survivors are from the toxicity check (mostly the fifth day) where no day follows; animals may have died later. Schedules are NCI's codes, read here as Q, the interval in days (D) or hours (H), X, the number of doses. Some doses were run more than once; the values are given in rising order. For survival time, this PubChem deposit counts one and a half times the control or more as active, and values a quarter to a half above the control carry no call in these data; other NCI protocols may use other cut-offs. Some T/C values are followed by the survivors on the day toxicity was checked, most often the fifth; where none is given, no animal had died by that day.
# Test system: P388 leukemia ip, CD2F1 mice, survival T/C
# Assay: NCI In Vivo Anticancer Drug Screen. Data for tumor model P388 Leukemia (intraperitoneal) in CD2F1 (CDF1) mice
# Conditions: T/C endpoint: median survival time, higher T/C = longer survival
# [1] = dose: 100.0 mg/kg/injection, schedule: Q01DX005 (ip), vehicle: Klucel (hydroxypropylcellulose) (HPC)
# [2] = dose: 200.0 mg/kg/injection, schedule: Q01DX005 (ip), vehicle: Klucel (hydroxypropylcellulose) (HPC)
# [3] = dose: 100.0 mg/kg/injection, schedule: Q01DX009 (ip), vehicle: saline with Tween-80
# [4] = dose: 200.0 mg/kg/injection, schedule: Q01DX009 (ip), vehicle: saline with Tween-80
# [5] = dose: 50.0 mg/kg/injection, schedule: Q01DX005 (ip), vehicle: saline
# [6] = dose: 100.0 mg/kg/injection, schedule: Q01DX005 (ip), vehicle: saline
# [7] = dose: 200.0 mg/kg/injection, schedule: Q01DX005 (ip), vehicle: saline
# [8] = dose: 100.0 mg/kg/injection, schedule: Q04DX003 (ip), vehicle: saline
# [9] = dose: 400.0 mg/kg/injection, schedule: Q04DX003 (ip), vehicle: saline
# [10] = dose: 50.0 mg/kg/injection, schedule: Q01DX009 (ip), vehicle: saline
# [11] = dose: 120.0 mg/kg/injection, schedule: Q01DX005 (ip), vehicle: saline with Tween-80
# [12] = dose: 240.0 mg/kg/injection, schedule: Q01DX005 (ip), vehicle: saline with Tween-80
structure (smiles),measurement,setting,value
O=NNc1ccc(Cl)cn1,T/C,"dose: 3.12 mg/kg/injection, schedule: Q01DX009 (ip), vehicle: water",128 % of control
same,T/C,"dose: 6.25 mg/kg/injection, schedule: Q01DX009 (ip), vehicle: water",142 and 144 % of control
same,T/C,"dose: 12.5 mg/kg/injection, schedule: Q01DX009 (ip), vehicle: water",144 % of control
same,survivor count,"dose: 25.0 mg/kg/injection, schedule: Q01DX009 (ip), vehicle: water",2 of 6 and 6 of 6
OCC[CH2][Pb]([c]1ccccc1)([c]1ccccc1)[c]1ccccc1,T/C,"dose: 6.25 mg/kg/injection, schedule: Q01DX009 (ip), vehicle: Klucel (hydroxypropylcellulose) (HPC)",127 % of control
same,survivor count,"dose: 12.5 mg/kg/injection, schedule: Q01DX009 (ip), vehicle: Klucel (hydroxypropylcellulose) (HPC)",2 of 6
O=c1oc2ccccc2cc1Cc1cc2ccccc2oc1=O,survivor count,"dose: 200.0 mg/kg/injection, schedule: Q01DX009 (ip), vehicle: Klucel (hydroxypropylcellulose) (HPC)",0 of 6
CC(C)(O)C1COC2=C1C(=O)c1ccccc1C2=O (centres undefined),survivor count,"dose: 200.0 mg/kg/injection, schedule: Q01DX009 (ip), vehicle: other",0 of 6
same,survivor count,"dose: 400.0 mg/kg/injection, schedule: Q01DX009 (ip), vehicle: other",0 of 6
COc1cc(CC2NCCc3cc(O)c(O)cc32)cc(OC)c1OC (centres undefined),survivor count,"dose: 25.0 mg/kg/injection, schedule: Q01DX009 (ip), vehicle: Klucel (hydroxypropylcellulose) (HPC)",0 of 6
same,survivor count,"dose: 50.0 mg/kg/injection, schedule: Q01DX009 (ip), vehicle: Klucel (hydroxypropylcellulose) (HPC)",0 of 6
same,survivor count,"dose: 100.0 mg/kg/injection, schedule: Q01DX009 (ip), vehicle: Klucel (hydroxypropylcellulose) (HPC)",0 of 6
CCc1nc(N)nc(N)c1-c1ccc2nn(-c3ccccc3)[n+]([O-])c2c1,T/C,"dose: 50.0 mg/kg/injection, schedule: Q01DX005 (ip), vehicle: Klucel (hydroxypropylcellulose) (HPC)",129 % of control [5 of 6 alive]
same,T/C,[1],127 and 131 % of control [5 of 6 alive]
same,T/C,[2],142 % of control
same,survivor count,"dose: 400.0 mg/kg/injection, schedule: Q01DX005 (ip), vehicle: Klucel (hydroxypropylcellulose) (HPC)",0 of 6
COc1ccc(CN2COc3c(cc(C)c4cccnc34)C2)cc1,survivor count,[3],3 of 6
C(=NCCN=CC1CCCC[N-]1)C1CCCC[N-]1.[Cu+2].[O-][Cl+3]([O-])([O-])O (centres undefined),survivor count,"dose: 50.0 mg/kg/injection, schedule: Q01DX009 (ip), vehicle: saline with Tween-80",1 of 6
same,survivor count,[3],0 of 6
same,survivor count,[4],0 of 6
Nc1nc(N)c(N2CCN(Cc3ccccc3)CC2)c(Cl)n1,survivor count,"dose: 120.0 mg/kg/injection, schedule: Q01DX005 (ip), vehicle: Klucel (hydroxypropylcellulose) (HPC)",6 of 6
same,survivor count,"dose: 240.0 mg/kg/injection, schedule: Q01DX005 (ip), vehicle: Klucel (hydroxypropylcellulose) (HPC)",3 of 6
O=C1CCOCCCOCCC(=O)OCCCOC(=O)CCOCCCOCCC(=O)OCCCO1,survivor count,[2],3 of 6
Cc1cc[c]([Sb]2[O]C(CO)C(C(O)C(O)C(=O)O)[O]2)cc1 (centres undefined),T/C,[5],"103 [4 of 5 alive], 105, 109, 117 % of control"
same,T/C,[6],108 [4 of 6 alive] and 125 % of control
same,survivor count,[6],1 of 6 and 3 of 5
same,survivor count,[7],0 of 5 and 0 of 6
CCOC(=O)C(=O)C1Cc2c(C)cc3cnc(OCC)cc3c2C1=O (centres undefined),survivor count,"dose: 50.0 mg/kg/injection, schedule: Q01DX009 (ip), vehicle: distilled water + Tween-80",6 of 6
CC(C)(C)c1cc(N)cc([N+](=O)[O-])c1,survivor count,"dose: 400.0 mg/kg/injection, schedule: Q04DX002 (ip), vehicle: other",5 of 6
C(=C\c1cc2cc(C3=NCCN3)ccc2o1)/c1cc2cc(C3=NCCN3)ccc2o1,T/C,[8],140 % of control
same,T/C,"dose: 200.0 mg/kg/injection, schedule: Q04DX003 (ip), vehicle: saline",137 % of control
same,survivor count,"dose: 200.0 mg/kg/injection, schedule: Q04DX003 (ip), vehicle: suspension in saline",4 of 6
same,survivor count,[9],0 of 6
O=C(O)CSC(CC(=O)O)C(F)(F)C(F)(F)C(F)(F)F (centres undefined),survivor count,[9],4 of 6
C/C(=C/c1cc(Br)c(O)c(Br)c1)[N+](=O)[O-],survivor count,[10],1 of 6 and 6 of 6
same,T/C,"dose: 50.0 mg/kg/injection, schedule: Q04DX003 (ip), vehicle: saline",130 % of control
same,survivor count,[8],3 of 6
same,survivor count,"dose: 200.0 mg/kg/injection, schedule: Q04DX003 (ip), vehicle: saline with Tween-80",1 of 6
same,survivor count,"dose: 400.0 mg/kg/injection, schedule: Q04DX003 (ip), vehicle: saline with Tween-80",0 of 6
CC[N+](C)(CC)CCOc1ccc(OCC[N+](C)(CC)CC)c2c1C(=O)c1ccccc1C2=O,survivor count,"dose: 6.25 mg/kg/injection, schedule: Q01DX005 (ip), vehicle: saline",0 of 5
same,survivor count,"dose: 12.5 mg/kg/injection, schedule: Q01DX005 (ip), vehicle: saline",0 of 5
same,survivor count,"dose: 25.0 mg/kg/injection, schedule: Q01DX005 (ip), vehicle: saline",0 of 5
same,survivor count,[5],0 of 5
same,survivor count,[6],0 of 5
same,survivor count,[7],0 of 5
[N-]=[N+]=C1C(=O)NC(=O)N2C3CC(O)C(COC12)O3 (centres undefined),T/C,"dose: 100.0 mg/kg/injection, schedule: Q01DX009 (ip), vehicle: saline sonified",138 % of control
same,T/C,"dose: 200.0 mg/kg/injection, schedule: Q01DX009 (ip), vehicle: saline sonified",147 % of control
same,T/C,"dose: 400.0 mg/kg/injection, schedule: Q01DX009 (ip), vehicle: saline sonified",128 % of control
COc1ccc2oc3c(ccc[n+]3C)c(=O)c2c1,T/C,"dose: 30.0 mg/kg/injection, schedule: Q01DX005 (ip), vehicle: saline with Tween-80",132 % of control
same,T/C,"dose: 60.0 mg/kg/injection, schedule: Q01DX005 (ip), vehicle: saline with Tween-80",126 and 130 % of control
same,T/C,[11],133 and 134 % of control
same,T/C,[12],"127, 130, 138 % of control"
same,survivor count,"dose: 480.0 mg/kg/injection, schedule: Q01DX005 (ip), vehicle: saline with Tween-80",3 of 6
CC(=O)Oc1c[nH]c(=O)[nH]c1=O,T/C,"dose: 400.0 mg/kg/injection, schedule: Q01DX009 (ip), vehicle: distilled water + Tween-80",134 % of control
same,survivor count,"dose: 600.0 mg/kg/injection, schedule: Q01DX009 (ip), vehicle: distilled water + Tween-80",6 of 6
COc1ccc(-c2csc(NC(=O)Nc3nc(-c4ccc(OC)cc4)cs3)n2)cc1,survivor count,[11],6 of 6
same,survivor count,[12],6 of 6
CCCc1cccc2c3c([nH]c12)C(CC)(CC(=O)O)CCC3 (centres undefined),survivor count,[3],5 of 6
same,survivor count,[4],5 of 6
C1CCC2[N-]CC3CCCCC3[N-]CC3CCCCC3[N-]CC3CCCCC3[N-]CC2C1.[Ni+2].[O-][Cl+3]([O-])([O-])O (centres undefined),survivor count,"dose: 12.5 mg/kg/injection, schedule: Q01DX009 (ip), vehicle: saline",0 of 6
same,survivor count,"dose: 25.0 mg/kg/injection, schedule: Q01DX009 (ip), vehicle: saline",0 of 6
same,survivor count,[10],0 of 6
CCOC(=O)c1cc2cc3c4c(c2oc1=O)CCCN4CCC3,survivor count,[1],0 of 6
same,survivor count,[2],0 of 6
